Among the data in article PMC7504720 are binding values, retold here.

Protein sequences, listed by entry. Tags and fused reporters are not part of them. Residues count along the entry.
UniProt Q9DBY1: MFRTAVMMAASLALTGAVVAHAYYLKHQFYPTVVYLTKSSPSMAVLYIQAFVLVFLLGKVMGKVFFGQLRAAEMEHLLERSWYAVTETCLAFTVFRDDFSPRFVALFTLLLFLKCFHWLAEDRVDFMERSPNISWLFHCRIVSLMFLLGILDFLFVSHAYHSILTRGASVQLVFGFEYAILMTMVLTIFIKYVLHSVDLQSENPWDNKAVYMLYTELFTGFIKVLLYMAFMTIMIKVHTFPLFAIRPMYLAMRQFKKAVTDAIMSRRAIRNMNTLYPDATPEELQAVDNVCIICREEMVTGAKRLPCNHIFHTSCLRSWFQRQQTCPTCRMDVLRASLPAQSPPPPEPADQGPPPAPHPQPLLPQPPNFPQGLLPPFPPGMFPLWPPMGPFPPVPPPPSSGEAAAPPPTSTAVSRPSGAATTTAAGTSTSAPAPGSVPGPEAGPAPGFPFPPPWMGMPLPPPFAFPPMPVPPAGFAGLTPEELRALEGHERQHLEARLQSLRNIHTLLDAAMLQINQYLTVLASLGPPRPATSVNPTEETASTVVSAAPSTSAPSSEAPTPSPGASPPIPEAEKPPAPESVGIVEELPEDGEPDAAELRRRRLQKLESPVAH
UniProt Q9Z2G6, residues 22-790: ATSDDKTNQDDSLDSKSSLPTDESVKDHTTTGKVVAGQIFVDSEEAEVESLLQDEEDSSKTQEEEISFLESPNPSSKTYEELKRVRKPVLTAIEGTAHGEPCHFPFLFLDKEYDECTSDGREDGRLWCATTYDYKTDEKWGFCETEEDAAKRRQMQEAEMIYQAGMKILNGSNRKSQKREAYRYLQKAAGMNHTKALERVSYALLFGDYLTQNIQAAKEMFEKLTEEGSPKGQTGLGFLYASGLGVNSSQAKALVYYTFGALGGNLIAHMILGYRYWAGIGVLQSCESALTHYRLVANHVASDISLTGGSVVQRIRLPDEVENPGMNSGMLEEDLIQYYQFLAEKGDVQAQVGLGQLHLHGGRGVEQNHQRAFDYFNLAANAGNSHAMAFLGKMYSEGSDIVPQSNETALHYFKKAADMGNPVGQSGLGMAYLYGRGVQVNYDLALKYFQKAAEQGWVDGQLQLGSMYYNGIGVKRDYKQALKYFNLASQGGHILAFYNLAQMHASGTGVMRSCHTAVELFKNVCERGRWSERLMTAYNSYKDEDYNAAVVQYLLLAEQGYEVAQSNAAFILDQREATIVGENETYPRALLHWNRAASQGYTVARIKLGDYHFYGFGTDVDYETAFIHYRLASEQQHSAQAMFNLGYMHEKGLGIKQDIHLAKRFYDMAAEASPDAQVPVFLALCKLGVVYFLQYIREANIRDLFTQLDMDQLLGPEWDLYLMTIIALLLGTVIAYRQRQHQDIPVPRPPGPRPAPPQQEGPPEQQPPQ

Results are given in words; binding and its absence hold for the method and conditions named. In cells and extracts the contact can be indirect. Some entries that bind do so weakly or less than the wild type. For some of these results: Tags and fused reporters may be left off the sequences shown.

In experiment [1] the target is T1, Herp (mouse (endogenous in liver and pancreas)) (UniProt Q9JJK5).
T1 sequence: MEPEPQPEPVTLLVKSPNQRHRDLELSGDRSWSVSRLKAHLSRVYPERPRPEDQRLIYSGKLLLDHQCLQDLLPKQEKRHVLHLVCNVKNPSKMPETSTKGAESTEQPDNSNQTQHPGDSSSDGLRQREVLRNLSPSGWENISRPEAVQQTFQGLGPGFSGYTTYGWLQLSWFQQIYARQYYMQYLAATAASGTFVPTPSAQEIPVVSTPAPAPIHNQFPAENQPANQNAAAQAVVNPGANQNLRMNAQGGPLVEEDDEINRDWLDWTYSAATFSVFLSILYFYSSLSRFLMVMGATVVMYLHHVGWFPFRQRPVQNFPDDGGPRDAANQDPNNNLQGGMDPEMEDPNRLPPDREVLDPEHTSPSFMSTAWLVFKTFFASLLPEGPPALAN
The experiment is described as follows: co-IP; digitonin-solubilized liver microsomes of WT, 3KO and HKO mice injected with PBS (control) or tunicamycin 24 h before; antibodies against Herp, Derlin-1, Derlin-2 or HRD1, Protein A-Sepharose, 4 °C; lysis buffer 50 mM Tris-HCl, 150 mM NaCl, 1% digitonin, pH 7.5; Western blot. (In general: Liver microsomes are a subcellular fraction often used to study metabolism.)

For experiment [2], the target named is T1, Herp (mouse (endogenous in liver and pancreas)). The experiment is described as follows: co-IP; heavy fractions (18-22) of a 0.15-1 M sucrose density gradient of liver microsomes of tunicamycin-treated WT mice; anti-Herp or anti-Derlin-1 antibodies; Western blot.
The target in experiment [3] is T2, Derlin-2 (mouse (endogenous in liver and pancreas)) (UniProt Q8BNI4).
T2 sequence: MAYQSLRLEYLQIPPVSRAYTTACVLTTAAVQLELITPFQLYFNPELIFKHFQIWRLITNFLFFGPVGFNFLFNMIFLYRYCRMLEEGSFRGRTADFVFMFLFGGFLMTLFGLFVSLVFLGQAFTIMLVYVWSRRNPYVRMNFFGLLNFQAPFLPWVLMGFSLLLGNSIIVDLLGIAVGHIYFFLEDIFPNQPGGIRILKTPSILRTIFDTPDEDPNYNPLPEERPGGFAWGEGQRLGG
The experiment is described as follows: co-IP; sequential co-IP from digitonin-solubilized liver microsomes of WT mice (PBS or tunicamycin): first anti-Herp or anti-Derlin-1, eluted with 200 µg/mL immunogen peptide, second anti-Derlin-2; Western blot.

Experiment [4] concerns the target T1, Herp (mouse (endogenous in liver and pancreas)). Described as above.
Experiment [5] has as its target T2, Derlin-2 (mouse (endogenous in liver and pancreas)). The experiment is described as follows: co-IP; digitonin-solubilized liver microsomes of WT, 3KO and HKO mice injected with PBS (control) or tunicamycin 24 h before; antibodies against Herp, Derlin-1, Derlin-2 or HRD1, Protein A-Sepharose, 4 °C; lysis buffer 50 mM Tris-HCl, 150 mM NaCl, 1% digitonin, pH 7.5; Western blot.

The target is the same in experiment [6]. The description is as above. The source holds these as a separate data set.
The target of experiment [7] is FLAG-tagged Herp and HA-tagged Herp (UniProt Q9JJK5). The experiment is described as follows: co-IP; FLAG-tagged Herp and HA-tagged Herp co-expressed, reciprocal co-IP; data not shown.
Experiment [8] has as its target HRD1 (mouse (endogenous in liver)) (UniProt Q9DBY1). The experiment is described as follows: co-IP; digitonin-solubilized liver microsomes of WT, 3KO and HKO mice injected with PBS (control) or tunicamycin 24 h before; antibodies against Herp, Derlin-1, Derlin-2 or HRD1, Protein A-Sepharose, 4 °C; lysis buffer 50 mM Tris-HCl, 150 mM NaCl, 1% digitonin, pH 7.5; Western blot.

Experiment [9] concerns the target T1, Herp (mouse (endogenous in liver and pancreas)). Description: co-IP; light fractions (8-12) of a 0.15-1 M sucrose density gradient of liver microsomes of tunicamycin-treated WT mice; anti-Herp or anti-Derlin-1 antibodies; Western blot.
The target is the same in experiment [10]. Description: co-IP; digitonin-solubilized pancreas microsomes of WT mice, normal conditions; anti-Herp or anti-Derlin-1 antibodies; Western blot. In general terms: A western blot detects proteins with antibodies after separation by electrophoresis.
The target is the same in experiment [11]. Description: co-IP; digitonin-solubilized liver microsomes of WT, 3KO and HKO mice injected with PBS (control) or tunicamycin 24 h before; antibodies against Herp, Derlin-1, Derlin-2 or HRD1, Protein A-Sepharose, 4 °C; lysis buffer 50 mM Tris-HCl, 150 mM NaCl, 1% digitonin, pH 7.5; Western blot. This is another data set of the same source.
For experiment [12], the target named is T3, Derlin-1 (mouse (endogenous in liver and pancreas)) (UniProt Q99J56).
T3 sequence: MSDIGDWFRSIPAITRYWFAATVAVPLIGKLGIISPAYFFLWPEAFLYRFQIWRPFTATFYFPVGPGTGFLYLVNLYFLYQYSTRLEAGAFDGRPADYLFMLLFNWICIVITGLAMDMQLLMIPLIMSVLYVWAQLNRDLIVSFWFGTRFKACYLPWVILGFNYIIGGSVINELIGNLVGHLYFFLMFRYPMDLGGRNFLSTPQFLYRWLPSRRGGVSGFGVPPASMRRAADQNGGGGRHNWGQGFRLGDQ
Description: co-IP; heavy fractions (18-22) of a 0.15-1 M sucrose density gradient of liver microsomes of tunicamycin-treated WT mice; anti-Herp or anti-Derlin-1 antibodies; Western blot.

Experiment [13] addresses T3, Derlin-1 (mouse (endogenous in liver and pancreas)). The experiment is described as follows: co-IP; sequential co-IP from digitonin-solubilized liver microsomes of WT mice (PBS or tunicamycin): first anti-Herp or anti-Derlin-1, eluted with 200 µg/mL immunogen peptide, second anti-Derlin-2; Western blot.
For experiment [14] the target is unchanged. Description: co-IP; digitonin-solubilized pancreas microsomes of Derlin-3-deficient (3KO) mice, normal conditions; anti-Herp or anti-Derlin-1 antibodies; Western blot.
Experiment [15] has as its target T1, Herp (mouse (endogenous in liver and pancreas)). The experiment is described as above.
For experiment [16], the target named is T3, Derlin-1 (mouse (endogenous in liver and pancreas)). The experiment is described as follows: co-IP; light fractions (8-12) of a 0.15-1 M sucrose density gradient of liver microsomes of tunicamycin-treated WT mice; anti-Herp or anti-Derlin-1 antibodies; Western blot.
The target is the same in experiment [17]. The experiment is described as follows: co-IP; digitonin-solubilized pancreas microsomes of WT mice, normal conditions; anti-Herp or anti-Derlin-1 antibodies; Western blot.
Experiment [18] shares this target. Description: co-IP; digitonin-solubilized liver microsomes of WT, 3KO and HKO mice injected with PBS (control) or tunicamycin 24 h before; antibodies against Herp, Derlin-1, Derlin-2 or HRD1, Protein A-Sepharose, 4 °C; lysis buffer 50 mM Tris-HCl, 150 mM NaCl, 1% digitonin, pH 7.5; Western blot.

As for HRD1 (from UniProt Q9DBY1 1-612), the binding result in experiment [1], in experiment [2], in experiment [3] and in experiment [4] was “binds” throughout.
Take SEL1L (from UniProt Q9Z2G6 22-790): the binding result in [1] is recorded as “binds”.
In the case of p97 (from UniProt Q01853 1-806), the binding entry in experiment [5] and in experiment [3] was “binds” each time.

B1: VIMP (protein, UniProt Q9BCZ4 1-190)
chain: MDRDEEPLSARPALETESLRFLHVTVGSLLASYGWYILFSCILLYIVIQRLSLRLRALRQRQLDQAETVLEPDVVVKRQEALAAARLRMQEDLNAQVEKHKEKLRQLEEEKRRQKIEMWDSMQEGRSYKRNSGRPQEEDGPGPSTSSVIPKGKSDKKPLRGGGYNPLTGEGGGTCSWRPGRRGPSSGGUN
B1: the binding entry in [3] and in experiment [6] was “binds” each time.

B2: FLAG-tagged Herp and HA-tagged Herp (protein, UniProt Q9JJK5 1-391)
chain: T1 sequence
On to B2, for which, in [7], the binding result was “binds”.

B3: Herp (protein, UniProt Q9JJK5 1-391)
chain: T1 sequence
As for B3, in [8], the binding result is reported as “binds”.

B4: Derlin-3 (protein, UniProt Q9D8K3 1-228)
chain: MAGQRLAAGFLQVPAVTRAYTAACVLTTAAVQLELLSPFQLYFNPHLVFRKFQVWRLITTFLFFGPLGFGFFFNMLFVFRYCRMLEEGSFRGRKADFVFMFLFGGVLMTLLGFLGSLFFLGQALMAMLVYVWSRRSPHVRVNFFGLLNFQAPFLPWALMGFSLLLGNSVVTDLLGILVGHIYYFLEDVFPNQPGGKRLLLTPSVLKLLLDDPQEDPDYLPLPEEQPEL
Consider B4, for which the binding result in experiment [2], in [9], in experiment [10] and in experiment [11] was “binds” in each case.

B5: Derlin-2 (protein, UniProt Q8BNI4 1-239)
chain: T2 sequence
On to B5, for which the binding entry in [12] is “binds”; in experiment [2] it was “binds weakly”; in [13], “binds”; in experiment [4], “binds”; in experiment [14] it was “binds”; in [15] it was “binds”. Further, the binding entry is “binds” in experiment [16]; “binds weakly” in experiment [9]; “binds” in [17]; “binds” in experiment [18]; “binds” in experiment [8]; “binds” in experiment [11].

B6: Derlin-1 (protein, UniProt Q99J56 1-251)
chain: T3 sequence
B6: in experiment [6], the binding entry was “binds”.
